Measurements as given in PMC6704221.
These are yes or no findings as the source states them, for the method shown. In cells and extracts the contact can be indirect. Some entries that bind do so weakly or less than the wild type.

Protein sequences, listed by entry. Tags and fused reporters are not part of them.
UniProt P09301: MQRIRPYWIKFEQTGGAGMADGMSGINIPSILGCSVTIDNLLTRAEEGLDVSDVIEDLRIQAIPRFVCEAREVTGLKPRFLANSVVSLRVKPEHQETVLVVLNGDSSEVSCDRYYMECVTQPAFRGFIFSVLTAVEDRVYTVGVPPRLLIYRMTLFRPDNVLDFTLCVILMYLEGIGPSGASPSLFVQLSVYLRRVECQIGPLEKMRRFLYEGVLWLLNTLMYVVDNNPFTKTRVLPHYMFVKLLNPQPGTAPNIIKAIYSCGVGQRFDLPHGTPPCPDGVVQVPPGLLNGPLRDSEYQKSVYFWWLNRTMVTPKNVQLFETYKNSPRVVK
UniProt P09271: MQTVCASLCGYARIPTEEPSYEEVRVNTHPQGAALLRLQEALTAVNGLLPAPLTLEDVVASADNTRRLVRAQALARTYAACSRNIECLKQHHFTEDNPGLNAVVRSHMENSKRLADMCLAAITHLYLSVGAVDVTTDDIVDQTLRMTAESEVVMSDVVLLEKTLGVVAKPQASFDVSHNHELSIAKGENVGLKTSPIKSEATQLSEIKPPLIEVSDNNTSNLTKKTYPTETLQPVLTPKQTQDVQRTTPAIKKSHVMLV

Columns and labels:
[1] = molecular target: Varicella-zoster virus ORF53 (expressed from a plasmid) (varicella-zoster virus) (UniProt P09301); test: co-IP; plasmid-transfected cells
[2] = molecular target: Varicella-zoster virus ORF53 (made by the virus in infected cells) (varicella-zoster virus) (UniProt P09301); test: co-IP; VZV-infected cells

Substance | binding [1] | binding [2]
Varicella-zoster virus ORF7 (expressed from a plasmid) (from UniProt P09271 1-259) | binds | –
Varicella-zoster virus ORF7 (made by the virus in infected cells) (from UniProt P09271 1-259) | – | binds
